Results from the supplement of paper PMC10398353.
Where “and” joins values, the source holds several entries; their conditions need not be identical. Identical values can stand only once. Counter-ions that a name gives are not always drawn. ± gives the standard deviation of the averaged measurements. This is one part of the list. The data scatter; read single values as rough.

These compounds were tested on Salmonella enterica serovar Typhimurium ST313 D23580 (assay: normalized bacterial growth (OD600 20 h minus 0 h, interquartile-mean normalized) (fraction of plate interquartile mean); higher = more bacterial growth (less inhibition)). Conditions: LPM (pH 5.8, low phosphate, low Mg2+), concentration: 10 µM, temperature: 37 °C.

Structure (SMILES) | normalized bacterial growth
CC1(C)S[C@@H]2[C@H](NC(=O)[C@H](C(=O)O)c3ccsc3)C(=O)N2[C@H]1C(=O)O | 1.07
CC(C)CN(C)c1nc(N)c(C(=O)N=C(N)N)nc1Cl [5-(N-Methyl-N-isobutyl)amiloride] | 1.06
CN[C@@H]1[C@@H](O)[C@@H](O[C@@H]2[C@@H](O)[C@H](O[C@H]3OC(CN)=CC[C@H]3N)[C@@H](N)C[C@H]2N)OC[C@]1(C)O | 1.24
CN[C@@H]1[C@@H](O)[C@@H](O[C@@H]2[C@@H](O)[C@H](O[C@H]3OC(CN)=CC[C@H]3N)[C@@H](N)C[C@H]2N)OC[C@]1(C)O [Sisomicin sulfate] | 1.12
Cc1cc(NS(=O)(=O)c2ccc(N)cc2)no1 | 1
O=C(c1ccc2c(c1)OCCO2)N1CCCCC1 | 0.818
C=C[C@@H](C1=CC(=O)C(OC)=C(OC)C1=O)c1ccccc1 | 1.09
O=C1CN(/N=C/c2ccc(-c3ccc([N+](=O)[O-])cc3)o2)C(=O)N1 | 1.04
O=C1CN(/N=C/c2ccc(-c3ccc([N+](=O)[O-])cc3)o2)C(=O)N1 [Dantrolene sodium salt] | 0.984
O=C1CN(/N=C/c2ccc(-c3ccc([N+](=O)[O-])cc3)o2)C(=O)N1 [Dantrolene sodium] | 0.847
COc1cc(O)c2c(c1)C(=O)c1cc(C)cc(O)c1C2=O | 0.97
CC(C)[C@H]1c2ccc(F)cc2CC[C@@]1(CCN(C)CCCc1nc2ccccc2[nH]1)OC(=O)C1CC1 | 1.46
CCOC(=O)n1ccn(C)c1=S | 0.987
C[C@H](N)[C@H](O)c1cccc(O)c1 | 1.27
C[C@H](N)[C@H](O)c1cccc(O)c1 [Metaraminol bitartrate] | 1.02
COc1cc2c3cc1Oc1c(OC)c(OC)cc4c1[C@@H](Cc1ccc(OC(=O)c5ccc([N+](=O)[O-])cc5)c(c1)Oc1ccc(cc1)C[C@@H]3N(C)CC2)N(C)CC4 | 0.889
OC1c2ccccc2N=C2CCCN21 (stereo unspecified) | 1.01
CCN(CC)CCOC(=O)C(Cc1cccc2ccccc12)CC1CCCO1 (stereo unspecified) | 0.918
CC1(C)S[C@@H]2[C@H](NC(=O)C(C(=O)O)c3ccccc3)C(=O)N2[C@H]1C(=O)O (stereo partly specified) | 1.09
Cc1nc2sccn2c(=O)c1CCN1CCC(=C(c2ccccc2)c2ccc(F)cc2)CC1 [Diacylglycerol kinase inhibitor I] | 0.796
CC(C)=CCC/C(C)=C/CC/C(C)=C/CO | 0.655

Structure (SMILES) | normalized bacterial growth
COc1c(-c2ccccc2)oc2c(ccc3occc32)c1=O | 0.863
Cc1c(C(=O)O)c(O)cc2c1C(=O)c1c(O)c([C@@H]3O[C@H](CO)[C@@H](O)[C@H](O)[C@H]3O)c(O)c(O)c1C2=O | 1.05 ± 0.06
Cc1ccccc1OCC(O)CO (stereo unspecified) | 1.22
CC1=C(CC(=O)O)c2cc(F)ccc2/C1=C\c1ccc(S(C)(=O)=O)cc1 [Sulindac sulfone] | 1.22
NC(N)=NC(=O)c1nc(Cl)c(N2CCCCCC2)nc1N ["5-(N,N-hexamethylene)amiloride"] | 0.743
c1ccc2c(c1)CN1CCCC1=N2 | 1.33 and 0.475
O=C1CN(/N=C/c2ccc([N+](=O)[O-])o2)C(=O)N1 | 1.07
O=C1O/C(=C/Br)CCC1c1cccc2ccccc12 (stereo unspecified) [Bromoenol lactone] | 0.733
Nc1nc(N)c2nc(CNc3ccc(C(=O)N[C@@H](CCC(=O)O)C(=O)O)cc3)cnc2n1 [Aminopterin] | 1.15
CC(C(=O)O)c1cccc(C(=O)c2ccccc2)c1 (stereo unspecified) [Ketoprofen] | 1.06
CC[C@H](NC(=O)c1c(C)c(-c2ccccc2)nc2ccccc12)c1ccccc1 | 0.829
N/C(=N\C(=O)c1nc(Cl)c(N)nc1N)NCc1ccc(Cl)c(Cl)c1 ["3',4'-Dichlorobenzamil"] | 0.873
NCC(O)(CS(=O)(=O)O)c1ccc(Cl)cc1 (stereo unspecified) [2-Hydroxysaclofen] | 1.04
O=NN(CCCl)C(=O)NCCCl [Carmustine] | 1.21
CCOC(=O)c1ncn2c1CN(C)C(=O)c1cc(F)ccc1-2 [Flumazenil] | 0.944
CCCC1O[C@@H]2C[C@H]3[C@@H]4CCC5=CC(=O)C=C[C@]5(C)[C@H]4[C@@H](O)C[C@]3(C)[C@]2(C(=O)CO)O1 (stereo partly specified) [Budesonide] | 0.925
CCCC1O[C@@H]2C[C@H]3[C@@H]4CCC5=CC(=O)C=C[C@]5(C)[C@H]4[C@@H](O)C[C@]3(C)[C@]2(C(=O)CO)O1 (stereo partly specified) | 1.24
NCCC1CCCC(CCN)N1 (stereo unspecified) ["MDL 26,630 trihydrochloride"] | 0.903
CCCCCCCCCCCCCCCCCCOCC(COP(=O)([O-])OCC[N+](C)(C)C)OC (stereo unspecified) | 1.32
CN1[C@@H]2CC[C@H]1CC(OC(=O)c1c[nH]c3ccccc13)C2 (stereo partly specified) [3-Tropanyl-indole-3-carboxylate hydrochloride] | 1.07
COc1cc(C(O)CO)ccc1OS(=O)(=O)O (stereo unspecified) [MHPG sulfate potassium] | 1.08

Structure (SMILES) | normalized bacterial growth
CC(C)c1c(O)ccc2c1CC[C@H]1C(C)(C)CCC[C@]21C | 1.08
COC(=O)c1c(C)[nH]c(C)c1C(=O)c1ccccc1Cc1ccccc1 | 1.05
NCCSSCCN [Cystamine dihydrochloride] | 1.12
Nc1nc2c(ncn2COCCO)c(=O)[nH]1 [Acyclovir] | 1
CC1(C)C(=O)[C@H]2C[C@]3(O)C4=CC(=O)O[C@@H](c5ccoc5)[C@@]4(C)CCC3[C@](C)(C2=O)[C@H]1CC(=O)O (stereo partly specified) | 0.872
CCCCCN(CCCCC)C(=O)C(CCC(=O)O)NC(=O)c1ccc(Cl)c(Cl)c1 (stereo unspecified) [Lorglumide sodium] | 0.696
O=c1cc(-c2ccccc2O)oc2cc(O)ccc12 | 1.05
CC(C)NCC(O)c1ccc(O)c(O)c1 (stereo not drawn) [S(+)-Isoproterenol (+)-bitartrate] | 1.01
CC(C)NCC(O)c1ccc(O)c(O)c1 (stereo unspecified) [()-Isoproterenol hydrochloride] | 1.18
C#CCCCCCCCCCCCC(O)CC(O)COC(C)=O (stereo unspecified) | 0.512
CC1(C)C(=O)C=CC2(C)C1C=CC1(C)C2CCC2(C)C(c3ccoc3)OC(=O)C3OC312 (stereo unspecified) | 0.798
CC(=O)OCC(=O)[C@@]1(O)[C@H](C)C[C@H]2[C@@H]3CCC4=CC(=O)C=C[C@]4(C)[C@@]3(F)[C@@H](O)C[C@@]21C [Dexamethasone acetate] | 1.1
CC(=O)OCC(=O)[C@@]1(O)[C@H](C)C[C@H]2[C@@H]3CCC4=CC(=O)C=C[C@]4(C)[C@@]3(F)[C@@H](O)C[C@@]21C | 0.999
COc1c(N2C[C@@H]3CCCN[C@@H]3C2)c(F)cc2c(=O)c(C(=O)O)cn(C3CC3)c12 | 0.092
COc1ccc(C(=O)c2ccccc2)c(O)c1 | 0.796
COc1ccc(C(=O)CC(=O)c2ccc(C(C)(C)C)cc2)cc1 | 1.06
Cc1nc(N=Nc2cc([N+](=O)[O-])ccc2Cl)c(COP(=O)(O)O)c(C=O)c1O [MRS 2211 sodium salt hydrate] | 0.771
CC1(C)CC23C(=O)CCC(O)C2(C)CCC13 (stereo unspecified) | 0.941
CCC(C(N)=O)c1ccccc1 (stereo unspecified) | 0.903
COc1cc2c(cc1OC)C1(O)C(=O)c3ccc(O)c(C(=O)O)c3OC1CO2 (stereo unspecified) | 0.988
NC(CCCP(=O)(O)O)C(=O)O (stereo unspecified) [()-2-Amino-5-phosphonopentanoic acid] | 1.12

Structure (SMILES) | normalized bacterial growth
C#C[C@]1(O)CC[C@H]2[C@@H]3CCc4cc(O)ccc4[C@H]3CC[C@@]21C | 0.928
CC(C)=CC1C(CO)C1(C)C (stereo unspecified) | 1.04
Cc1occc(=O)c1O | 0.9
CCCCCCCC/C=C\CCCCCCCC(=O)NCCO [N-Oleoylethanolamine] | 0.3
CNCC[C@@H](Oc1ccc(C(F)(F)F)cc1)c1ccccc1 [R-(-)-Fluoxetine hydrochloride] | 0.816
COc1ccc(C(=O)O)c(O)c1OC | 1.11
Cc1cc(C)cc(OCC2CNC(=O)O2)c1 (stereo unspecified) | 0.84
CC(=O)O[C@H]1C[C@@H]2CC[C@@H]3[C@H](CC[C@@]4(C)[C@H]3C[C@H]([N+]3(C)CCCCC3)[C@@H]4OC(C)=O)[C@@]2(C)C[C@@H]1N1CCCCC1 | 0.721
C[C@]12C=CC(=O)C=C1CC[C@H]1[C@@H]3C[C@@H](O)[C@](O)(C(=O)CO)[C@@]3(C)C[C@H](O)[C@@]12F | 1.24
C[C@]12C=CC(=O)C=C1CC[C@H]1[C@@H]3C[C@@H](O)[C@](O)(C(=O)CO)[C@@]3(C)C[C@H](O)[C@@]12F [Triamcinolone] | 0.914
CC1(C)O[C@@H]2C[C@H]3[C@@H]4CCC5=CC(=O)CC[C@]5(C)[C@@]4(F)[C@@H](O)C[C@]3(C)[C@]2(C(=O)CCl)O1 | 0.987
CC1(C)O[C@@H]2C[C@H]3[C@@H]4CCC5=CC(=O)CC[C@]5(C)[C@@]4(F)[C@@H](O)C[C@]3(C)[C@]2(C(=O)CCl)O1 [Halcinonide] | 1.12
C[C@@H]1O[C@@H](OC[C@H]2O[C@@H](Oc3c(-c4ccc(OCCO)c(OCCO)c4)oc4cc(OCCO)cc(O)c4c3=O)[C@H](O)[C@@H](O)[C@@H]2O)[C@H](O)[C@H](O)[C@H]1O | 1.13
OC(c1cc(C(F)(F)F)nc2c(C(F)(F)F)cccc12)C1CCCCN1 (stereo unspecified) | 0.942
CNCCCC12CCC(c3ccccc31)c1ccccc12 [Maprotiline hydrochloride] | 1.18 ± 0.48
CC[C@H]1OC(=O)C[C@@H](O)[C@H](C)[C@@H](O[C@@H]2O[C@H](C)[C@@H](O)[C@H](N(C)C)[C@H]2O)[C@@H](CCN2C[C@H](C)C[C@H](C)C2)C[C@@H](C)C(=O)/C=C/C(C)=C/[C@@H]1CO[C@@H]1O[C@H](C)[C@@H](O)[C@@H](OC)[C@H]1OC | 0.865
Cc1coc2c1C(=O)C(=O)c1c-2ccc2c1CCCC2(C)C | 1.12
Cc1cc(Cn2cnc3c2C[C@@H](C(=O)O)N(C(=O)C(c2ccccc2)c2ccccc2)C3)ccc1N | 0.858
